Values of other authors, collected in patent EP0729957A1, “PYRIDINE COMPOUND AND MEDICINAL USE THEREOF” (YOSHITOMI PHARMACEUTICAL INDUSTRIES, LTD., priority 1993, dated 1995).
At least one compound was matched to its structure with a doubt left.

Details: Graham et al. 1992; cited from earlier work

For `CNC(=C[N+](=O)[O-])NCCSCc1ccc(CN(C)C)o1` [ranitidine], the “recurrence ratio after one year in duodenal ulcer” value is listed as 95% and the “recurrence ratio after one year in stomach ulcer” value is listed as 74%.
